# Results: PMC13156293
# Chains of the proteins cited; added tags and fusions are not shown. Lines headed by an entry give the natural chain unless they say otherwise; changes in a name come on top. A line that says so, or that is headed by a name, gives the form on record, which may keep a tag or linker.
# UniProt Q96J02: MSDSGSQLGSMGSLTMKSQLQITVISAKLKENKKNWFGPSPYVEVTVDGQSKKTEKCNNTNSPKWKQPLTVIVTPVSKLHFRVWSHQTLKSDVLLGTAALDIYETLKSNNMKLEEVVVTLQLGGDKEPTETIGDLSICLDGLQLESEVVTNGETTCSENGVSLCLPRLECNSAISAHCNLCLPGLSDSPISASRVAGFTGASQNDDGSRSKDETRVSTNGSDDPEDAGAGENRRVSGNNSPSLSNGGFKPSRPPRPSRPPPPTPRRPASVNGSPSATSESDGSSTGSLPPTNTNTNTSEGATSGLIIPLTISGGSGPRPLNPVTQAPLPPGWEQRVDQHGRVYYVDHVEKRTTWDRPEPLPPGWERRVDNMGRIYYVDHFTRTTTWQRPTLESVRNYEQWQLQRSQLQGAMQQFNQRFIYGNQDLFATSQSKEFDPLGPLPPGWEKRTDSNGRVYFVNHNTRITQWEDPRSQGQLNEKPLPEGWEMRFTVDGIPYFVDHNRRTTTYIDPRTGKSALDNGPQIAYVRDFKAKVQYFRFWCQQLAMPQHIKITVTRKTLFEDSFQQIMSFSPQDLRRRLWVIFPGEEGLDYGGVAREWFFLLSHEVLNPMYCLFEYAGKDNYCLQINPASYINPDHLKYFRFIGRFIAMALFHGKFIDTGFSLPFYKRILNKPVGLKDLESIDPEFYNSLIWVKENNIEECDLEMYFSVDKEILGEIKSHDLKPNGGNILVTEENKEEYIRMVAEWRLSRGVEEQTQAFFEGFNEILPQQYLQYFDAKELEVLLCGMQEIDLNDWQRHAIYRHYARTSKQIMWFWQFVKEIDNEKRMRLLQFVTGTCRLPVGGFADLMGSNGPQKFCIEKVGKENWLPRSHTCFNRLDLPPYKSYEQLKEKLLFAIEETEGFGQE
# Flag-Itch wild type (Q96J02, form named): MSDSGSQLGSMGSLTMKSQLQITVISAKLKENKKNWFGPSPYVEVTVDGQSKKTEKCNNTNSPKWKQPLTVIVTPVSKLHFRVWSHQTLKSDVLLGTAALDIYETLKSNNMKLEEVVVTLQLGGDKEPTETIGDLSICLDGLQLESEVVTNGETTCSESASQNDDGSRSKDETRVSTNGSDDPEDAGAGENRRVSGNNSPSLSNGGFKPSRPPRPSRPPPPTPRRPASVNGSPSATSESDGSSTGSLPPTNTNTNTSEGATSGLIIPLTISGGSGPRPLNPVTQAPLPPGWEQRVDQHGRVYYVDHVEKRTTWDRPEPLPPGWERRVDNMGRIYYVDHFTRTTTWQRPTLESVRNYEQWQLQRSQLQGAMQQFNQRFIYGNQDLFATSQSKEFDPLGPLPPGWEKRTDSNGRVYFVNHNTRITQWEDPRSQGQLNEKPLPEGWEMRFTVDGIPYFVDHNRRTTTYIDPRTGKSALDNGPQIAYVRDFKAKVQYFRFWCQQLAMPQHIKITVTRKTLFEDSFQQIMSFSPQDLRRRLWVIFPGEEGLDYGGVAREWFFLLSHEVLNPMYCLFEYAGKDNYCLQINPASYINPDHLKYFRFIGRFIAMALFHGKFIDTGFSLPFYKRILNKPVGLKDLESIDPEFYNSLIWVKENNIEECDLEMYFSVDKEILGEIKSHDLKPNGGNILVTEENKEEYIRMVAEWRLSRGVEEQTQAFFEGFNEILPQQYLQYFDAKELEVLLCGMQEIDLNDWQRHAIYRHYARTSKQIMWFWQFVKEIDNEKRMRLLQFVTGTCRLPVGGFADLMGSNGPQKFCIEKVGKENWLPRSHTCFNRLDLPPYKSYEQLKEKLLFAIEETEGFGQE
# UniProt Q8C863: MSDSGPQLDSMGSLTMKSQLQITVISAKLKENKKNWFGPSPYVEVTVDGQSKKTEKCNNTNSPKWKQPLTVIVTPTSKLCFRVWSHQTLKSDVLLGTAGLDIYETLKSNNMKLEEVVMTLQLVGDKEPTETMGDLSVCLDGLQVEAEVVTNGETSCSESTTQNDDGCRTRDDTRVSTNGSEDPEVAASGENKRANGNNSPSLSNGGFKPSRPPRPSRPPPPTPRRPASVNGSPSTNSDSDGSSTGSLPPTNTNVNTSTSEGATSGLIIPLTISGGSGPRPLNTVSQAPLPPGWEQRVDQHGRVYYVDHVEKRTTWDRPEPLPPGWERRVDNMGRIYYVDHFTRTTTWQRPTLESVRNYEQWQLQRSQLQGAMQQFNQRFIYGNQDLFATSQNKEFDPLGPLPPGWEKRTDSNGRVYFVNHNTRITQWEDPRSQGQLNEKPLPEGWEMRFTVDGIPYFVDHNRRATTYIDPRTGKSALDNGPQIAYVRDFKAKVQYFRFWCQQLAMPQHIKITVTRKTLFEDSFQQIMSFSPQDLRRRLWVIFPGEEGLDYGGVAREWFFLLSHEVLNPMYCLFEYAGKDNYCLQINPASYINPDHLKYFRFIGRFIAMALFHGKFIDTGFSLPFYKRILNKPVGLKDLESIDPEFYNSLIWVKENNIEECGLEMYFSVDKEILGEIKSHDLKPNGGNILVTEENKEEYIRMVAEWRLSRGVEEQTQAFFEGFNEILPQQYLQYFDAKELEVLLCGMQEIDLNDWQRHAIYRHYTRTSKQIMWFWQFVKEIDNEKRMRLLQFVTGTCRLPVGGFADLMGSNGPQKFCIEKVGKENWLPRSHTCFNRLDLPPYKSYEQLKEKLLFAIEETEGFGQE
# Results are given in words; binding and its absence hold for the method and conditions named. In cells and extracts the contact can be indirect. Some entries that bind do so weakly or less than the wild type. For part of these data: Tags and fused reporters may be left off the sequences shown.
# Assays:
# [1] = target: endogenous MAML1 of WT MEFs (mouse (endogenous in WT MEFs)) (UniProt Q6T264); test: co-IP; endogenous proteins from WT MEF whole-cell extracts; antibody and protein A/G agarose, 4 °C; immunoblot
# Flag-Itch wild type = Flag-Itch wild type (UniProt Q96J02); test: co-IP; HEK293T co-transfected with the tagged plasmids; whole-cell extracts in 50 mM Tris-HCl pH 7.5, 150 mM NaCl, 1% NP-40, 5 mM EDTA lysis buffer; antibody or anti-Flag M2 agarose, 4 °C; immunoblot
# GST-Itch = GST-Itch (UniProt Q96J02); test: pull-down; recombinant GST fusion bound to Glutathione Sepharose 4B beads, incubated 2 h with precleared whole-cell extracts of transfected HEK293T; washed with 20 mM Tris-HCl pH 8, 200 mM NaCl, 1 mM EDTA, NP-40; eluted with reduced glutathione; anti-Flag immunoblot; only the target purified
molecule,measurement,setting,value
endogenous Itch of WT MEFs (from UniProt Q8C863 1-864) (enzyme),binding,[1],binds
V5-MAML1 (pHAGE-N-V5-MAML1-FL) (from UniProt Q92585 1-1016),binding,Flag-Itch wild type,binds
"Flag-MAML1 303-1016 (pFLAG-CMV-2 MAML1 (303-1016)) (domain or fragment, UniProt Q92585 303-1016) SPAAFEQEQLGSPQVRAGSAGQTFLGPSSAPVSTDSPSLGGSQTLFHTSGQPRADNPSPNLMPASAQAQNAQRALAGVVLPSQGPGGASELSSAHQLQQIAAKQKREQMLQNPQQATPAPAPGQMSTWQQTGPSHSSLDVPYPMEKPASPSSYKQDFTNSKLLMMPSVNKSSPRPGGPYLQPSHVNLLSHQPPSNLNQNSANNQGSVLDYGNTKPLSHYKADCGQGSPGSGQSKPALMAYLPQQLSHISHEQNSLFLMKPKPGNMPFRSLVPPGQEQNPSSVPVQAQATSVGTQPPAVSVASSHNSSPYLSSQQQAAVMKQHQLLLDQQKQREQQQKHLQQQQFLQRQQHLLAEQEKQQFQRHLTRPPPQYQDPTQGSFPQQVGQFTGSSAAVPGMNTLGPSNSSCPRVFPQAGNLMPMGPGHASVSSLPTNSGQQDRGVAQFPGSQNMPQSSLYGMASGITQIVAQPPPQATNGHAHIPRQTNVGQNTSVSAAYGQNSLGSSGLSQQHNKGTLNPGLTKPPVPRVSPAMGGQNSSWQHQGMPNLSGQTPGNSNVSPFTAASSFHMQQQAHLKMSSPQFSQAVPNRPMAPMSSAAAVGSLLPPVSAQQRTSAPAPAPPPTAPQQGLPGLSPAGPELGAFSQSPASQMGGRAGLHCTQAYPVRTAGQELPFAYSGQPGGSGLSSVAGHTDLIDSLLKNRTSEEWMSDLDDLLGSQ",binding,GST-Itch,binds
